Experimental data from patent US20200407449A1.
These are yes or no findings as the source states them, for the method shown. Some entries that bind do so weakly or less than the wild type.

B1: anti-VISTA antibody 1A12 (IgG form) (antibody, V domains shown)
VH: QMQLVESGGGLVEPGRSLRLSCTTSGFSFHDYTMYWVRQVPGKGLEWVSLISWDGTITFYADPVRGRFTISRDNSKNSLYLQMNSLRAEDTAVYYCAKEDRYDYYSGAFDIWGQGTVVTVSS
VL: QSALTQPRSVSGSPGQSVTISCTGTSSDVGGYDYVSWYQQHPGKAPKLILNDVNKRPSGVPDRFSGSKSGNTASLTISGLQPDDEADYYCSSFAGSNTLRVFGGGTKLTVLG
B2: 1A12 monoclonal scFv phage (scFv, V domains shown)
VH: B1 VH
VL: B1 VL

How the values were obtained:
[1] = biological target: T1, human VISTA expressed on CHO-K1 cells (human) (UniProt Q9H7M9); experiment: flow cytometry, IgG at 2 ug/ml on CHO-K1 cells overexpressing human VISTA
T1 sequence (looked up): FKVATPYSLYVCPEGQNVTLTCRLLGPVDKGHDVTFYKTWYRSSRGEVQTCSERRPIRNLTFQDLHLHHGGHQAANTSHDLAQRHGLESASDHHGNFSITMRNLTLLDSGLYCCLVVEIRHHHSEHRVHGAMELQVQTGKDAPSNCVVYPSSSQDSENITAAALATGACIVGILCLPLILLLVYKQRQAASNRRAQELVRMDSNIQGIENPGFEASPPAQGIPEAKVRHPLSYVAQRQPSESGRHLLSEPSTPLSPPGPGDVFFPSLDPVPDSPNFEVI

[2] = biological target: T1, human VISTA expressed on CHO-K1 cells (human); experiment: flow cytometry, IgG at 2 ug/ml on CHO-K1 cells over-expressing human VISTA, anti-human IgG-Fc-PE
[3] = biological target: T1, human VISTA expressed on CHO-K1 cells (human); experiment: flow cytometry, scFv phage on CHO-K1 cells overexpressing human VISTA
[4] = biological target: T1, human VISTA expressed on CHO-K1 cells (human); experiment: flow cytometry, scFv phage supernatant on CHO-K1 cells expressing human VISTA, anti-M13 then anti-mouse IgG-PE

Binder	binding [1]	binding [2]	binding [3]	binding [4]
B1	binds	binds	–	–
B2	–	–	binds	binds
